Data as given in PubChem BioAssay AID1259405 (NCATS, 2018)

Test: 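Silenced genes that increase secreted GFP made by CHO cells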 (primary screen)
System: Chinese hamster CHO-K1 ovary cells with stable secreted eGFP expression
Reagent: single siRNA against mouse genes, 0.8 pmol siRNA per well (2 µl of 400 nM stock)
Timing: 3 days
Measured: 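Per-well intracellular GFP measured by laser scanning cytometry, plus viability from ATP luminescence, each relative to plate median of non-targeting control wells, in %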
Reading the numbers: GFP, % of control: higher = more GFP per well, higher productivity; viability (ATP), % of control: higher = more viable cells (more ATP)
Call rule: 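a knock-down is called active if GFP reaches 120% or more of non-targeting control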
This is a random part of about 50,000 deposited reagents. About 4,000 of all reagents (8%) were called active. 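Mouse siRNA library applied to hamster cells; one well for each siRNA.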 The numbers tell different reagents against one gene apart.

target | reagent no. | GFP, % of control | viability (ATP), % of control | activity call
Arhgef38 (Rho guanine nucleotide exchange factor 38) | 1 | 98.3 | 59.4 | inactive
Arhgef38 (Rho guanine nucleotide exchange factor 38) | 2 | 86.1 | 83.5 | inactive
Arhgef38 (Rho guanine nucleotide exchange factor 38) | 3 | 172 | 116 | active
Cldn18 (claudin 18) | 1 | 58.4 | 58.7 | inactive
Cldn18 (claudin 18) | 2 | 97.1 | 75.6 | inactive
Cldn18 (claudin 18) | 3 | 108 | 28.5 | inactive
Gdpd2 (glycerophosphodiester phosphodiesterase domain containing 2) | 1 | 84.4 | 94.9 | inactive
Gdpd2 (glycerophosphodiester phosphodiesterase domain containing 2) | 2 | 117 | 72.7 | inactive
Gdpd2 (glycerophosphodiester phosphodiesterase domain containing 2) | 3 | 40.7 | 54.9 | inactive
Ptgfrn (prostaglandin F2 receptor negative regulator) | 1 | 69 | 89.4 | inactive
Ptgfrn (prostaglandin F2 receptor negative regulator) | 2 | 22.3 | 28 | inactive
Ptgfrn (prostaglandin F2 receptor negative regulator) | 3 | 41.8 | 45.7 | inactive
Mob1b (MOB kinase activator 1B) | 1 | 55.7 | 81.8 | inactive
Mob1b (MOB kinase activator 1B) | 2 | 97 | 101 | inactive
Spon1 (spondin 1, (f-spondin) extracellular matrix protein) | 1 | 77.2 | 97.7 | inactive
Spon1 (spondin 1, (f-spondin) extracellular matrix protein) | 2 | 76.8 | 72.8 | inactive
Nuak2 (NUAK family, SNF1-like kinase, 2) | 1 | 86.9 | 80.6 | inactive

Called active, among the entries above:
target | reagent no. | GFP, % of control | viability (ATP), % of control | activity call
Arhgef38 (Rho guanine nucleotide exchange factor 38) | 3 | 172 | 116 | active

The listing continues.
target | reagent no. | GFP, % of control | viability (ATP), % of control | activity call
Wipf1 (WAS/WASL interacting protein family, member 1) | 1 | 60.4 | 56.1 | inactive
Wipf1 (WAS/WASL interacting protein family, member 1) | 2 | 85.3 | 80.2 | inactive
Wipf1 (WAS/WASL interacting protein family, member 1) | 3 | 90.3 | 92.2 | inactive
Cryz (crystallin, zeta) | 1 | 104 | 90.2 | inactive
Cryz (crystallin, zeta) | 2 | 97.5 | 64.6 | inactive
Cryz (crystallin, zeta) | 3 | 72.3 | 55.9 | inactive
Pde6h (phosphodiesterase 6H, cGMP-specific, cone, gamma) | 1 | 141 | 101 | active
Pde6h (phosphodiesterase 6H, cGMP-specific, cone, gamma) | 2 | 104 | 87.3 | inactive
Pde6h (phosphodiesterase 6H, cGMP-specific, cone, gamma) | 3 | 28.7 | 41.4 | inactive
Flvcr2 (feline leukemia virus subgroup C cellular receptor 2) | 1 | 9.71 | 10.2 | inactive
Flvcr2 (feline leukemia virus subgroup C cellular receptor 2) | 2 | 53.8 | 81.8 | inactive
Flvcr2 (feline leukemia virus subgroup C cellular receptor 2) | 3 | 66.2 | 56.5 | inactive
Snrpg (small nuclear ribonucleoprotein polypeptide G) | 1 | 96.9 | 107 | inactive
Snrpg (small nuclear ribonucleoprotein polypeptide G) | 2 | 110 | 83.1 | inactive
Ubr3 (ubiquitin protein ligase E3 component n-recognin 3) | 1 | 79 | 40.5 | inactive
Ubr3 (ubiquitin protein ligase E3 component n-recognin 3) | 2 | 73 | 64.5 | inactive
Ubr3 (ubiquitin protein ligase E3 component n-recognin 3) | 3 | 55.3 | 76.7 | inactive
